Data reported in paper PMC10675526 (Pharmaceutics, 2023).

Assay: general procedure: Fmoc solid-phase peptide synthesis
Settings: whole synthesis, area percentage of major peak

## RRWCFRVCYRGFCYRKCR
  purity (crude or final not stated): 96.91%

End groups of sequences in plain letters are not given here.
